No constants are given. Whether binding was seen depends on the method and setting. Binding can be weak; no strength is given. Sequences can lack the tags named with a protein.
Molecular target: T1, Swi1 fused to Gal4 DNA-binding domain (S. pombe) (UniProt Q9UUM2)
T1 sequence: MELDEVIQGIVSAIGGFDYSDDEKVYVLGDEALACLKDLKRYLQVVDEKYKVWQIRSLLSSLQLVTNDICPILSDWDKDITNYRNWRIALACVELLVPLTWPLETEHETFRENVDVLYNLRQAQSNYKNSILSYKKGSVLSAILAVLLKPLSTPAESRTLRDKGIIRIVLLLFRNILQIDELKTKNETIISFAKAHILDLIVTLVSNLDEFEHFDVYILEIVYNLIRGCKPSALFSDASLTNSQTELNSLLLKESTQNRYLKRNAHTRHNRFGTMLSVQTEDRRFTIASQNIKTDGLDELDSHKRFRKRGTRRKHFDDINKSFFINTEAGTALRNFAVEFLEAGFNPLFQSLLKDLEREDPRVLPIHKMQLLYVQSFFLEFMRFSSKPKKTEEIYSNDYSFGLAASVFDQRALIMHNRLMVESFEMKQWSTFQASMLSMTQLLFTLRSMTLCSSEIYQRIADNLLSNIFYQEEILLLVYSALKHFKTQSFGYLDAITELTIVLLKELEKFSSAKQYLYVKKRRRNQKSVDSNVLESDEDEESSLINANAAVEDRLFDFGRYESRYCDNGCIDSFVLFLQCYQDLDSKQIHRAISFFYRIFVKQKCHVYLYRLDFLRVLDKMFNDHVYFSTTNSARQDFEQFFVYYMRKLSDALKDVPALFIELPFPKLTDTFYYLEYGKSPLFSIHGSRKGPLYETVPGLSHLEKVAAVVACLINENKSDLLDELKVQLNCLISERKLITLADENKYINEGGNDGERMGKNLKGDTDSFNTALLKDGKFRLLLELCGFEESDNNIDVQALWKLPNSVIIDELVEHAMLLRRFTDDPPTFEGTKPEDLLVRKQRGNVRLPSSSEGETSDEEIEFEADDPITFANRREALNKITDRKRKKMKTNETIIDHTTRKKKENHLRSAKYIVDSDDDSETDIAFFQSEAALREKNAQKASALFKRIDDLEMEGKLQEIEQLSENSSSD
Test: two-hybrid; S. cerevisiae Y190 reporter strain; Gal4-DBD (pAS404) and Gal4-AD (pGAD424) fusions; growth in the presence of 3-aminotriazole (25 mM in the screen)

binding: binds
Substance: Sbp6-AD (Swi1-binding protein 6)

From paper PMC6466672
